The values below come from paper PMC11092803, “Heme allocation in eukaryotic cells relies on mitochondrial heme export through FLVCR1b to cytosolic GAPDH” (Research Square, 2024).

Protein sequences, listed by entry. Tags and fused reporters are not part of them. Lines headed by an entry give the natural chain unless they say otherwise; changes in a name come on top.
UniProt P04406: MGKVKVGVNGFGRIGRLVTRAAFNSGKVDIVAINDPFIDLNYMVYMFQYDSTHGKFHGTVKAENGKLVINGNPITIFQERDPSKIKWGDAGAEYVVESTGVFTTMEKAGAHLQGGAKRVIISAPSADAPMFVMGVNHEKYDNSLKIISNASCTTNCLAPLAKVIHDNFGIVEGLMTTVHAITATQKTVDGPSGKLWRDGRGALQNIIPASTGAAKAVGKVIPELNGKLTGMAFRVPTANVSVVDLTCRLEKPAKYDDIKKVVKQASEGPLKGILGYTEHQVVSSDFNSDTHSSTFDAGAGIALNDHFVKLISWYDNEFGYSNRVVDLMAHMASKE

For test [1], the target named is T1, Feline Leukemia Virus subgroup C Receptor 1b (FLVCR1b) (human (endogenous in HEK293T)) (UniProt Q9Y5Y0).
T1 sequence: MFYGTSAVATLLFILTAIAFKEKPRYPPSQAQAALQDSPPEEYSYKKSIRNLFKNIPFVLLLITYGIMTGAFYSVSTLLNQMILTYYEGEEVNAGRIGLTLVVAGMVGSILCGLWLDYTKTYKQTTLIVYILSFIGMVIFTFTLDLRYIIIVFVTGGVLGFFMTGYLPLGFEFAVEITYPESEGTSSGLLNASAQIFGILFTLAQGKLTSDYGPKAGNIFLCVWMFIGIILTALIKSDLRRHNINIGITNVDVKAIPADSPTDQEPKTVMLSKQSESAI
Put plainly: co-IP; solubilised (1% Triton X-100) mitochondria of HEK293T cells, 0.5 mg protein, anti-FLVCR antibody and Protein G agarose, Western blot; at times after δ-ALA/Fe.

Test [2] concerns the target T1, Feline Leukemia Virus subgroup C Receptor 1b (FLVCR1b) (human (endogenous in HEK293T)). Description: proximity ligation; Duolink PLA on HEK293T cells transfected with HA-tagged GAPDH wild type or H53A, antibodies to HA and FLVCR1; resting and at times after δ-ALA/Fe; background = one primary antibody alone.

These are yes or no findings as the source states them, for the method shown. In cells and extracts the contact can be indirect. Some binding calls cover weakened binding; strength is not graded here.

“glyceraldehyde phosphate dehydrogenase (GAPDH) (from UniProt P04406 1-335)”: in test [1], the binding entry is on record as “binds”.

With “H53A point mutant variant of HA-hGAPDH (from UniProt P04406 1-335)”, the binding entry in test [1] was “binds”.

With “HA-tagged human GAPDH reporter protein TC-hGAPDH (wild type) (from UniProt P04406 1-335)”, the binding entry in test [1] and in test [2] was “binds” throughout.
